Source: PubChem BioAssay AID2417 (National Center for Advancing Translational Sciences (NCATS), 2010)
Among all 140,000 compounds or so, about 4,300 (3.1%) were called active. Inconclusive results, whose numbers are uncertain, are shown with a selection of clear calls.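 The calls were made as follows: active = readout at or below -70, meaning at least 70% loss of cells showing the perinucleolar compartment, a nuclear body marking cancer cells; inconclusive = readout between -30 and a set limit; inactive = the rest.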

Experiment: High Content Assay for Compounds that inhibit the Assembly of the Perinucleolar Compartment;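 also: plate controls were DMSO wells for no effect and camptothecin positive control wells for full effect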
Settings: PC3M PTB-GFP, PNC prevalence imaging, 16 h; at 10 µM; stronger effect = lower value
Procedure, shortened: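 Compounds are pinned in duplicate onto adhered PC3M cells stably expressing GFP-tagged PTB and incubated 16 h at 37 C. Cells are then fixed, nuclei stained with Hoechst, and PNC-positive cells counted.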

| SMILES | activity change (PNC), negative = inhibition |
| --- | --- |
| N#Cc1nc(COc2ccccc2)oc1N1CCOCC1 | inconclusive: -63.8% |
| COc1ccccc1N1CCN(C(=O)c2c(-c3c(Cl)cccc3Cl)noc2C)CC1 | active: -86.9% |
| O=C(NC1CCCCCC1)C1c2ccccc2C(=O)N1Cc1cccnc1 (stereo not drawn) | inconclusive: -57% |
| Cc1nc(Sc2cccn2C)c(C(F)(F)F)c(=O)[nH]1 | inconclusive: -44.3% |
| O=C(Nc1cc(S(=O)(=O)N2CCCCC2)ccc1O)c1ccccc1NS(=O)(=O)c1ccc(F)c(F)c1 | inconclusive: -30.1% |
| COc1ccc2cc(C(=O)COC(=O)COc3ccc4c(C)cc(=O)oc4c3)ccc2c1 | inactive: 70.3% |
| CCCCCC[n+]1c(-c2ccccc2)csc1Nc1ccccc1 | inconclusive: -59.7% |
| CC(C)CC(=O)NC(=S)Nc1cc(C(=O)O)ccc1Cl | inconclusive: -64.2% |
| COC(=O)c1sccc1NC(=S)N1CCCC(C)C1 (stereo not drawn) | inconclusive: -56.6% |
| Cc1cc2n(n1)C(c1ccccc1)CC(c1ccc(Br)cc1)=N2 (stereo not drawn) | inconclusive: -67% |
| COc1ccccc1OCc1ccc(C(=O)N2CCOCC2)o1 | inactive: 2.76% |
| N#CNC(=Nc1cccc(F)c1)SCc1ccccc1 | active: -103% |
| CCOC(=O)c1cccc(NC(=O)CSc2nnc(C)n2Cc2ccccc2)c1 | inactive: 1.53% |
| CCSc1nnc(NC(=O)c2cccc(S(=O)(=O)N(C)c3ccc(C)cc3)c2)s1 | inactive: 32.8% |
| CCOC(=O)c1cc(NC(=O)N2CCOCC2)c(C)nc1C | inactive: -7.68% |
| CS(=O)(=O)N(CC(=O)NCc1ccccc1Cl)C1CCCCC1 | inconclusive: -47.6% |
| CN(CC(=O)Nc1ccc(F)c(F)c1F)c1cnccn1 | active: -100% |
| COC(=O)C1C/C(=N\NS(=O)(=O)c2ccc(C)cc2)c2sccc2C1 (stereo not drawn) | inconclusive: -30.8% |
| O=C(NCC12CC3CC(CC(C3)C1)C2)c1nn2c(c1Cl)NC(c1ccco1)CC2C(F)(F)F (stereo not drawn) | inconclusive: -32.5% |
| CCC1CCC(c2nnc(-c3ccc([N+](=O)[O-])cc3)o2)CC1 (stereo not drawn) | inconclusive: -31.4% |
| O=C(c1ccccc1-c1nc(-c2ccc(F)cc2)no1)N1CCCC1 | active: -100% |
| O=C(CSc1cccc(C(F)(F)F)c1)NCc1ccccc1 | inconclusive: -64.3% |
| CCCCCCCOC(=O)c1ccc(OC(=O)c2cccnc2)cc1 | inactive: 25.3% |
| CCn1c(C)nc2cc(C(=O)n3cc(C(=O)c4ccccc4O)cn3)ccc21 | inconclusive: -48.3% |

| SMILES | activity change (PNC), negative = inhibition |
| --- | --- |
| Oc1oc(-c2ccco2)nc1C=Nc1cccc(Cl)c1 | inconclusive: -67.1% |
| O=C(O)c1ccccc1CSc1ncn[nH]1 | inconclusive: -41% |
| Cc1cc(C)nc(N2CCC(CNC(=O)CCc3ccccc3)CC2)n1 | inconclusive: -39.8% |
| O=C(CN(C1CCCCC1)S(=O)(=O)c1ccccc1)N1CCCC1 | inconclusive: -44.1% |
| O=C(N/N=C/c1ccc(O)c(O)c1)c1ccc(CSc2cccc3cccnc23)cc1 | inconclusive: -41.2% |
| COC(=O)c1ccc(OCCn2cnc3ccccc3c2=O)cc1 | inconclusive: -36% |
| CCCc1cc(=O)[nH]c(SCC(=O)N(C)C2CCS(=O)(=O)C2)n1 (stereo not drawn) | inconclusive: -41.2% |
| Cc1ccnc2nc(C(=O)Nc3ccc4c(c3)OCO4)nn12 | inactive: 26.9% |
| CCC(C)C(NC(=O)C1CCC(C)CC1)C(=O)NC(CCSC)C(=O)OC (stereo not drawn) | inconclusive: -31.6% |
| COc1ccc(C2CC(c3ccc(Cl)c(Cl)c3)Nc3nc(N)nn32)cc1 (stereo not drawn) | inconclusive: -31.5% |
| Cc1ccccc1OCc1nc2ccccc2c(=O)n1/N=C/c1c[nH]c2ccccc12 | active: -123% |
| O=C(c1n[nH]c(=O)c2ccccc12)N1CCN(c2ccccc2Cl)CC1 | inconclusive: -41% |
| CCOC(=O)CN1C(=O)N[C@@H](c2ccccc2)C(C(=O)OC)=C1C | inconclusive: -30.7% |
| CCN(C(=O)c1cnc(N2CCN(c3ncccn3)CC2)c2ccccc12)c1cccc(Cl)c1 | inactive: 35.5% |
| CC1Cn2c(COc3ccccc3)nnc2S1 (stereo not drawn) | inactive: 29.2% |
| CCCCN1C(=O)C2ON(c3ccccc3C)C(c3ccco3)C2C1=O (stereo not drawn) | inconclusive: -59.5% |
| CCn1c(SCC(=O)c2[nH]c(C)c(C(C)=O)c2C)nnc1-c1ccncc1 | inconclusive: -35.3% |
| O=C(NC1CCN(C(=S)NCc2ccco2)CC1)c1ccc(F)cc1 | active: -100% |
| O=C1CC(SC2=NCCS2)C(=O)N1c1ccc(Cl)cc1 (stereo not drawn) | inactive: 72.1% |
| [O-]/[N+](=C\c1ccc(F)cc1)c1ccccc1 | inactive: -18.7% |
| COc1cc2cc(CN(Cc3nnnn3C3CCCC3)C3CCCC3)c(=O)[nH]c2cc1OC | inconclusive: -32.2% |
| N#CCSc1nc2c(c(=O)n1Cc1ccccc1)C1(CCCC1)Cc1ccccc1-2 | inconclusive: -40.7% |
| O=C1CCC(=O)N1c1ccc(CSc2nnnn2C2CCCCC2)cc1 | inconclusive: -30.2% |
| CCn1cc(C(=O)Nc2sc(C)c(C)c2C(=O)OC)cn1 | inconclusive: -48.7% |

A section taken from the entries so far, for reference:

| SMILES | activity change (PNC), negative = inhibition |
| --- | --- |
| Cc1cc(C)nc(N2CCC(CNC(=O)CCc3ccccc3)CC2)n1 | inconclusive: -39.8% |
| O=C(CN(C1CCCCC1)S(=O)(=O)c1ccccc1)N1CCCC1 | inconclusive: -44.1% |
| O=C(N/N=C/c1ccc(O)c(O)c1)c1ccc(CSc2cccc3cccnc23)cc1 | inconclusive: -41.2% |
| COC(=O)c1ccc(OCCn2cnc3ccccc3c2=O)cc1 | inconclusive: -36% |
| CCCc1cc(=O)[nH]c(SCC(=O)N(C)C2CCS(=O)(=O)C2)n1 (stereo not drawn) | inconclusive: -41.2% |
| Cc1ccnc2nc(C(=O)Nc3ccc4c(c3)OCO4)nn12 | inactive: 26.9% |

More entries follow:

| SMILES | activity change (PNC), negative = inhibition |
| --- | --- |
| Cc1cccc(NC(=S)NC2CC3CCCC(C2)N3Cc2cccs2)c1C (stereo not drawn) | inactive: 70% |
| O=C(CN(Cc1ccc(F)cc1)S(=O)(=O)c1ccccc1)N1CCCCC1 | inconclusive: -31.2% |
| C=CCNC(=O)C(C#N)c1nc2ccccc2nc1N1CCCCCC1 (stereo not drawn) | inconclusive: -55.2% |
| O=S(=O)(CCN(CCS(=O)(=O)C(F)(F)F)CC1CCCO1)C(F)(F)F (stereo not drawn) | inactive: -3.35% |
| Cc1ccc(-n2c(Cc3cccn3C)nnc2SCC(=O)Nc2cc(C)on2)cc1 | inconclusive: -60.2% |
| COC(=O)c1ccccc1NC(=O)Nc1ccc(C(=O)N2CCCC2)cc1 | inconclusive: -54.5% |
| O=C1C2C3C=CC(C3=C3CCCCC3)C2C(=O)N1Cc1ccccc1 (stereo not drawn) | inactive: -18.3% |
| CCC(=O)NCCNc1nc2cc(C)c(C)cc2cc1C#N | inconclusive: -47.5% |
| Cc1ccc(CCN2CC(C(=O)NCc3ccco3)CC2=O)cc1 (stereo not drawn) | inconclusive: -39.1% |
| COc1cccc2cc(C(=O)CC3(O)C(=O)N(Cc4ccccc4)c4ccccc43)c(=O)oc12 (stereo not drawn) | inactive: 8.85% |
| Cc1ccc(C(=O)N/N=C(\CC(C)C)c2ccccc2)cc1 | active: -105% |
| Nc1cc(=O)[nH]c(SCc2csc(-c3ccccc3)n2)n1 | inactive: 3.01% |
| COc1ccc(C(=O)N2CCN(c3cccc(Cl)c3)CC2)c(OC)c1 | inconclusive: -34.8% |
| O=C(OCc1ccccc1F)c1ccc2c(c1)-c1ccccc1C2=O | inactive: -18.3% |
| CSCCC(NC(=O)c1ccccc1)C(=O)NCc1ccco1 (stereo not drawn) | inconclusive: -63% |
| COc1ccccc1N1CCN(CCCNC(=O)Nc2ccccc2)CC1 | inconclusive: -62.1% |
| CCCn1nnc(NC(=O)c2cccc(OCC)c2)n1 | inconclusive: -55.7% |
| Cc1ccc2[nH]c(=O)c(CN(CCO)Cc3nnnn3CCc3ccccc3)cc2c1 | inactive: 6.26% |
| CC(=O)N(C)c1ccc(NC(=O)c2ccccc2C(=O)O)cc1 | active: -117% |
| CCc1nnc(NC(=O)c2ccc(S(=O)(=O)N(CCOC)CCOC)cc2)o1 | inactive: -11.8% |
| COc1cccc(Oc2cn[nH]c2-c2ccc(O)cc2O)c1 | active: -86.1% |
| CCOC(=O)c1nc2nc(C)c(Cl)c(=O)n2[nH]1 | inconclusive: -30.3% |
| CCc1nnc(NC(=O)c2cc3ccccc3oc2=O)s1 | inactive: 24.5% |
| Cc1cc(NC(=O)CSc2nnc(CNc3cccc(C(F)(F)F)c3)n2Cc2ccco2)no1 | inconclusive: -33.6% |

| SMILES | activity change (PNC), negative = inhibition |
| --- | --- |
| c1ccc(OCc2nnc3sc(-c4cccs4)nn23)cc1 | inconclusive: -43.5% |
| CCOC(=O)c1ccc(NC(=O)c2ccc3c(c2)OCO3)cc1 | inconclusive: -46.3% |
| O=C(CN(Cc1ccco1)C(=O)c1ccc(Cl)cc1)Nc1c(Cl)cc(Cl)cc1Cl | inconclusive: -40% |
| O=C(CN1C(=O)NC2NC(=O)NC21)NN=C1CCCC1 (stereo not drawn) | inconclusive: -42.7% |
| CCOC(=O)c1ccccc1NC(=S)N1CC(C)CC(C)C1 (stereo not drawn) | inconclusive: -64.3% |
| Cc1ccc(O/C=C2\OC(=O)c3ccccc32)cc1 | inconclusive: -50.3% |
| CC1=C(C(=O)Nc2ccccc2C)C(c2ccccc2)NC(=O)N1 (stereo not drawn) | inconclusive: -42.6% |
| Cc1ccc(S(=O)(=O)CCC(=O)OCC(=O)N2CC(=O)Nc3ccccc32)cc1 | inconclusive: -42.7% |
| O=C(CCc1ccc(S(=O)(=O)N2CCOCC2)cc1)NCCc1ccccn1 | inconclusive: -70.8% |
| CCC1SC2=NC(C)=C(C(=O)OC)C(c3ccc(C)cc3)N2C1=O (stereo not drawn) | inconclusive: -30.9% |
| C[N+](C)(C)CCCCCCC(=O)/C=N/O | inactive: 38.7% |
| Cc1ccc(-c2nnc(N)s2)cc1 | inactive: 35% |
| [O-][N+]1=C(c2cccs2)CN(O)C1 | inconclusive: -57.6% |
| CC(C)CC(=O)Nc1ccc(Nc2ccccc2)cc1 | active: -100% |
| Cc1ccc(S(=O)(=O)Nc2cccnc2)cc1 | inactive: 78.4% |
| C=CCn1cc(/C=N/NC(=O)COc2cccc3cccnc23)c2ccccc21 | inactive: -12.1% |
| O=S(=O)(N/N=C\c1ccc(-c2ccccc2Cl)o1)c1ccccc1 | inconclusive: -48.7% |
| CCCC(=O)Nc1nn(C)c2nc3c(C)cccc3cc12 | inconclusive: -39.6% |
| C/C(=N\NC(=O)c1cc2c(s1)CCC(C)C2)c1cccnc1 (stereo not drawn) | inconclusive: -50.5% |
| CCC(C)C(=O)Nc1cc(OC)c(OC)cc1C(=O)O (stereo not drawn) | inconclusive: -45.6% |
| Cc1ccccc1-n1nc(C(=O)O)c(C)c(C#N)c1=O | inconclusive: -39.3% |
